# Experimental data reported in PMC6299615.
# The chains behind the UniProt entries cited, without tags or fusion partners.
# UniProt P46937: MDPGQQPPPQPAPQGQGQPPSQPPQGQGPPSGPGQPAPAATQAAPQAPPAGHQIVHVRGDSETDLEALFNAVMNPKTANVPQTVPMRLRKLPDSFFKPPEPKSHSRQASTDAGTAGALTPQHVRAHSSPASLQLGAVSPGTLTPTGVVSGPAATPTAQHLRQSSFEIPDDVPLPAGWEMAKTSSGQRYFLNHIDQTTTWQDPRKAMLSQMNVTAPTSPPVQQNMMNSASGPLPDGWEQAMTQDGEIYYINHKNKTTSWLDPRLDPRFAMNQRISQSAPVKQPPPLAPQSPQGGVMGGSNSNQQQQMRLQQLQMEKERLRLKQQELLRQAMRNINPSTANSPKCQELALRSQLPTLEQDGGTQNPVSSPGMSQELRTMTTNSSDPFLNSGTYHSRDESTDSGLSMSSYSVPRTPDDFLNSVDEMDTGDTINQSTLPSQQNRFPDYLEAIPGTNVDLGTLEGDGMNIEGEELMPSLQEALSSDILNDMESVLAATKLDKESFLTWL
# No constants are given. Whether binding was seen depends on the method and setting. In cells and extracts the contact can be indirect. Some results given as binding are weak or reduced against the parent protein; the word gives no strength.
# T1: p73 (human (endogenous in MCF-7)) (UniProt O15350)
# T1 sequence: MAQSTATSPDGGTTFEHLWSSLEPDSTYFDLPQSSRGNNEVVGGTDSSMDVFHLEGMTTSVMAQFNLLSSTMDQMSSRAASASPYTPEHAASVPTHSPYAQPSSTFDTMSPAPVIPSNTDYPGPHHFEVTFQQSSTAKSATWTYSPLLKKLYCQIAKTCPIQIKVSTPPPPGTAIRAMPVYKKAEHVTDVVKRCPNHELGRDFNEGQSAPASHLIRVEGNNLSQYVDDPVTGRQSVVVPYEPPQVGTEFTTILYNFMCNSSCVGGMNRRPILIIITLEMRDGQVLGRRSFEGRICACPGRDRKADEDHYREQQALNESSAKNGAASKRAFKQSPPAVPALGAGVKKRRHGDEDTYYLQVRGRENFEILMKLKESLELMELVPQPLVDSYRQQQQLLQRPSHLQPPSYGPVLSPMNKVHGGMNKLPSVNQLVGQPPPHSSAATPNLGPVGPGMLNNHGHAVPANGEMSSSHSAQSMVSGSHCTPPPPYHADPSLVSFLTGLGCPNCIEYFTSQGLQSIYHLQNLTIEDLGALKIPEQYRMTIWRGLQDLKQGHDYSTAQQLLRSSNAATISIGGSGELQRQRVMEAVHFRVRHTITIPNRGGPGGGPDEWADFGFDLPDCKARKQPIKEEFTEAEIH
# Columns and labels:
# [1] = biological target: T1, p73 (human (endogenous in MCF-7)); test: co-IP; endogenous proteins in MCF-7 lysate; precipitated with an anti-p73 antibody, blotted for YAP; cells treated with ABF with or without the JNK inhibitor SP600125
# [2] = biological target: Yes-associated protein (human (endogenous in MCF-7)) (UniProt P46937); test: co-IP; endogenous proteins in MCF-7 lysate; precipitated with an anti-YAP antibody on protein G magnetic beads, overnight at 4 °C, blotted for p73; cells with or without ABF (20 nM)
Molecule,binding [1],binding [2]
Yes-associated protein (from UniProt P46937 1-504),binds,
"p73 (protein, UniProt O15350 1-636) MAQSTATSPDGGTTFEHLWSSLEPDSTYFDLPQSSRGNNEVVGGTDSSMDVFHLEGMTTSVMAQFNLLSSTMDQMSSRAASASPYTPEHAASVPTHSPYAQPSSTFDTMSPAPVIPSNTDYPGPHHFEVTFQQSSTAKSATWTYSPLLKKLYCQIAKTCPIQIKVSTPPPPGTAIRAMPVYKKAEHVTDVVKRCPNHELGRDFNEGQSAPASHLIRVEGNNLSQYVDDPVTGRQSVVVPYEPPQVGTEFTTILYNFMCNSSCVGGMNRRPILIIITLEMRDGQVLGRRSFEGRICACPGRDRKADEDHYREQQALNESSAKNGAASKRAFKQSPPAVPALGAGVKKRRHGDEDTYYLQVRGRENFEILMKLKESLELMELVPQPLVDSYRQQQQLLQRPSHLQPPSYGPVLSPMNKVHGGMNKLPSVNQLVGQPPPHSSAATPNLGPVGPGMLNNHGHAVPANGEMSSSHSAQSMVSGSHCTPPPPYHADPSLVSFLTGLGCPNCIEYFTSQGLQSIYHLQNLTIEDLGALKIPEQYRMTIWRGLQDLKQGHDYSTAQQLLRSSNAATISIGGSGELQRQRVMEAVHFRVRHTITIPNRGGPGGGPDEWADFGFDLPDCKARKQPIKEEFTEAEIH",,binds
